Values of other authors, collected in PMC10041529 (Journal of Medicinal Chemistry, 2023).

Test system: 235 kinases
Set-up: method as in PMID 21870818
Conditions: at 500 nM, of 235 kinases tested; cited from earlier work

For `O=C(O)c1ccc2c(c1)nc(Nc1cccc(Cl)c1)c1ccncc12` [CX-4945, 5-(3-Chlorophenylamino)benzo[c][2,6]naphthyridine-8-carboxylic Acid], the “number of kinases inhibited by more than 90%” value is listed as 10 and the “number of kinases whose activity was affected by more than 50%” value is listed as 49.
